In the test the target is CD4抗原 (表面抗原分化簇4, Cluster of Differentiation 4) (UniProt P01730). In words: flow cytometry on mixed K562-CD4 and K562 cells, 1 μg antibody. (In general: Flow cytometry measures light scatter and fluorescence of single cells or particles in a stream.)

Results are given in words; binding and its absence hold for the method and conditions named. Some results given as binding are weak or reduced against the parent protein; the word gives no strength.

B1: 分离的抗体(标记为CD4-14) (antibody, V domains shown)
VH: QVQLVQSGPELKKPGASVKVSCKASGYTFTDYVIHWVKQATGQGLEWIGEIYPGSGSAYSNAKFKDRVTMTADKSSNTAYMELSSLTSDDTAVYFCARRGNGTGFAYWGQGTLVTVSS
VL: DIVLTQSPASLAVSLGQRATITCKAGQSVDYDGDSYMNWYQQKPGQPPKLLIYVASNLESGIPARFSGSGSGTDFTLNIHPVEENDAATYYCQQSYKDPLTFGQGTKLEIK
As for B1, the binding entry is recorded as “binds”.
